These are literature values, as cited in patent US4255433A, “(+)-(3-Methyl-4-oxo-5N-piperidinothiazolidin-2-ylidene)acetic acid esters, method of preparation and use” (Godecke Aktiengesellschaft, priority 1979, dated 1981).

SMILES strings stand for the structures.

The data set relates to mice. Particulars: male mice; literature (Meng-Loew, Diuretika, 1974); cited from earlier work.

On to `NS(=O)(=O)c1cc(C(=O)O)c(NCc2ccco2)cc1Cl` [Compound E, 5-(aminosulfonyl)-4-chloro-2-[(2-furanylmethyl)amino]benzoic acid], for which the LD50 is 4,600 mg/kg.
